These are yes or no findings as the source states them, for the method shown. Some entries that bind do so weakly or less than the wild type. Where a sequence is shown, tags or fusion partners need not be part of it.
Experiments:
[1] = target: T1, IL-18Rα: D3 (third extracellular domain of IL-18Rα, his6 tagged, from E. coli) (UniProt Q13478); test: BS3 chemical cross-linking, SDS-PAGE, Western blot with anti-IL-18Rα mAb
T1 sequence (looked up): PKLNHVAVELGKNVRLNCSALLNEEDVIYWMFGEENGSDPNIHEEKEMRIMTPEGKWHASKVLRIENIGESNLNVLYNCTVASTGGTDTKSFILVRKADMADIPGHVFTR

[2] = target: T1, IL-18Rα: D3 (third extracellular domain of IL-18Rα, his6 tagged, from E. coli); test: BS3 chemical cross-linking, reducing SDS-PAGE, Western blot with anti-IL-18Rα mAb (legend of FIG. 3A)

- binding [1]: binds
- binding [2]: binds
B1: pro IL-1F7b (full-length IL-1F7b) (ligand, human, UniProt Q9NZH6 1-218, looked up)
chain: MSFVGENSGVKMGSEDWEKDEPQCCLEDPAGSPLEPGPSLPTMNFVHTSPKVKNLNPKKFSIHDQDHKVLVLDSGNLIAVPDKNYIRPEIFFALASSLSSASAEKGSPILLGVSKGEFCLYCDKDKGQSHPSLQLKKEKLMKLAAQKESARRPFIFYRAQVGSWNMLESAAHPGWFICTSCNCNEPVGVTDKFENRKHIEFSFQPVCKAEMSPSEVSD
